Record: PubChem BioAssay AID1259327 (Drosophila RNAi Screening Center, 2017)

Aim: 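Knock-downs altering cellular ATP with no metal added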
Cells: Drosophila S2R+ cells
Knock-down reagent: long dsRNA against Drosophila genes
Time to read-out: 5 days (water added on day 4, read one day later)
Challenge: water added as vehicle, no metal, one day before read-out
Measurement: 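Total ATP measured by luciferase light, scaled to plate mean, duplicates averaged, then z-scored across plates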
Reading the numbers: ATP z-score: higher = more total ATP than typical wells; ATP luminescence: higher = more total ATP
Hit rule: 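Called active when the ATP z-score exceeds 1.5 or falls below -1.5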
Calls: active = hit: ATP up or down; inactive = no clear ATP change
Shown is a random part of about 3,100 deposited reagents. Of all reagents, 378 (12%) got an active call. 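Hits include both directions; z-score sign shows ATP rise or fall; raw luminescence values are not plate-normalised.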 Not given: the amount of reagent.

pes (peste) [DRSC03033]
- ATP z-score, duplicate mean: 0.362
- ATP luminescence, replicate 1 (RLU): 7.86e5
- ATP luminescence, replicate 2 (RLU): 7.43e5
- outcome: inactive

pes (peste) [DRSC25954]
- ATP z-score, duplicate mean: -0.882
- ATP luminescence, replicate 1 (RLU): 7.25e5
- ATP luminescence, replicate 2 (RLU): 7.57e5
- outcome: inactive

ZnT63C (Zinc transporter 63C) [DRSC08032]
- ATP z-score, duplicate mean: -1.36
- ATP luminescence, replicate 1 (RLU): 5.68e5
- ATP luminescence, replicate 2 (RLU): 6.24e5
- outcome: inactive

ZnT63C (Zinc transporter 63C) [DRSC08033]
- ATP z-score, duplicate mean: -0.97
- ATP luminescence, replicate 1 (RLU): 6.33e5
- ATP luminescence, replicate 2 (RLU): 6.41e5
- outcome: inactive

ZnT63C (Zinc transporter 63C) [DRSC23528]
- ATP z-score, duplicate mean: -2.52
- ATP luminescence, replicate 1 (RLU): 6.12e5
- ATP luminescence, replicate 2 (RLU): 4.35e5
- outcome: active

Itgbn (Integrin betanu subunit) [DRSC03493]
- ATP z-score, duplicate mean: 1.03
- ATP luminescence, replicate 1 (RLU): 8.68e5
- ATP luminescence, replicate 2 (RLU): 8.03e5
- outcome: inactive

Itgbn (Integrin betanu subunit) [DRSC39788]
- ATP z-score, duplicate mean: 0.0934
- ATP luminescence, replicate 1 (RLU): 5.22e5
- ATP luminescence, replicate 2 (RLU): 4.46e5
- outcome: inactive

Pex13 (Peroxin 13) [DRSC06877]
- ATP z-score, duplicate mean: 0.212
- ATP luminescence, replicate 1 (RLU): 7.85e5
- ATP luminescence, replicate 2 (RLU): 7.21e5
- outcome: inactive

Continued; the last 2 above are carried over.
Itgbn (Integrin betanu subunit) [DRSC39788]
- ATP z-score, duplicate mean: 0.0934
- ATP luminescence, replicate 1 (RLU): 5.22e5
- ATP luminescence, replicate 2 (RLU): 4.46e5
- outcome: inactive

Pex13 (Peroxin 13) [DRSC06877]
- ATP z-score, duplicate mean: 0.212
- ATP luminescence, replicate 1 (RLU): 7.85e5
- ATP luminescence, replicate 2 (RLU): 7.21e5
- outcome: inactive

Or22a (Odorant receptor 22a) [DRSC26009]
- ATP z-score, duplicate mean: -0.324
- ATP luminescence, replicate 1 (RLU): 8.69e5
- ATP luminescence, replicate 2 (RLU): 7.50e5
- outcome: inactive

TM9SF3 (Transmembrane 9 superfamily protein member 3) [DRSC09747]
- ATP z-score, duplicate mean: 0.00966
- ATP luminescence, replicate 1 (RLU): 9.57e5
- ATP luminescence, replicate 2 (RLU): 8.40e5
- outcome: inactive

CG1213 [DRSC12191]
- ATP z-score, duplicate mean: 0.535
- ATP luminescence, replicate 1 (RLU): 9.88e5
- ATP luminescence, replicate 2 (RLU): 9.44e5
- outcome: inactive

Drl-2 (Derailed 2) [DRSC06155]
- ATP z-score, duplicate mean: -0.244
- ATP luminescence, replicate 1 (RLU): 7.15e5
- ATP luminescence, replicate 2 (RLU): 7.17e5
- outcome: inactive

Drl-2 (Derailed 2) [DRSC06858]
- ATP z-score, duplicate mean: -0.573
- ATP luminescence, replicate 1 (RLU): 5.20e5
- ATP luminescence, replicate 2 (RLU): 6.16e5
- outcome: inactive

Drl-2 (Derailed 2) [DRSC36862]
- ATP z-score, duplicate mean: -0.596
- ATP luminescence, replicate 1 (RLU): 4.36e5
- ATP luminescence, replicate 2 (RLU): 6.24e5
- outcome: inactive

Drl-2 (Derailed 2) [DRSC36863]
- ATP z-score, duplicate mean: -1.46
- ATP luminescence, replicate 1 (RLU): 4.61e5
- ATP luminescence, replicate 2 (RLU): 4.51e5
- outcome: inactive

mthl7 (methuselah-like 7) [DRSC10852]
- ATP z-score, duplicate mean: 0.639
- ATP luminescence, replicate 1 (RLU): 9.53e5
- ATP luminescence, replicate 2 (RLU): 1.00e6
- outcome: inactive

mthl7 (methuselah-like 7) [DRSC39583]
- ATP z-score, duplicate mean: -1.83
- ATP luminescence, replicate 1 (RLU): 3.50e5
- ATP luminescence, replicate 2 (RLU): 3.31e5
- outcome: active

Grl65a (Gustatory receptor-like 65a) [DRSC08837]
- ATP z-score, duplicate mean: -0.472
- ATP luminescence, replicate 1 (RLU): 6.83e5
- ATP luminescence, replicate 2 (RLU): 7.00e5
- outcome: inactive

Grl65a (Gustatory receptor-like 65a) [DRSC25986]
- ATP z-score, duplicate mean: -0.28
- ATP luminescence, replicate 1 (RLU): 7.47e5
- ATP luminescence, replicate 2 (RLU): 8.84e5
- outcome: inactive

CG5805 [DRSC15878]
- ATP z-score, duplicate mean: -1.79
- ATP luminescence, replicate 1 (RLU): 5.30e5
- ATP luminescence, replicate 2 (RLU): 5.12e5
- outcome: active

CG5805 [DRSC39631]
- ATP z-score, duplicate mean: -2.14
- ATP luminescence, replicate 1 (RLU): 3.25e5
- ATP luminescence, replicate 2 (RLU): 3.14e5
- outcome: active

Gr22c (Gustatory receptor 22c) [DRSC29715]
- ATP z-score, duplicate mean: 0.118
- ATP luminescence, replicate 1 (RLU): 8.68e5
- ATP luminescence, replicate 2 (RLU): 8.08e5
- outcome: inactive

CG17637 [DRSC11740]
- ATP z-score, duplicate mean: 0.559
- ATP luminescence, replicate 1 (RLU): 1.03e6
- ATP luminescence, replicate 2 (RLU): 9.08e5
- outcome: inactive

Ndc1 (Nuclear division cycle 1) [DRSC15895]
- ATP z-score, duplicate mean: -0.0633
- ATP luminescence, replicate 1 (RLU): 7.22e5
- ATP luminescence, replicate 2 (RLU): 6.77e5
- outcome: inactive

Ndc1 (Nuclear division cycle 1) [DRSC39536]
- ATP z-score, duplicate mean: 1.09
- ATP luminescence, replicate 1 (RLU): 6.23e5
- ATP luminescence, replicate 2 (RLU): 4.33e5
- outcome: inactive
